Measurements published in article doi:10.1101/755504 (bioRxiv, 2019).
No constants are given. Whether binding was seen depends on the method and setting. Binding seen in cells or lysates may run through a third protein. Binding calls can cover weak binding; strength is not graded here. Where a sequence is shown, tags or fusion partners need not be part of it.

Amino acid sequences for entries named in this document (tags omitted). A change or cut given only in a name is not applied to a line headed by its entry.
UniProt Q4V3C8: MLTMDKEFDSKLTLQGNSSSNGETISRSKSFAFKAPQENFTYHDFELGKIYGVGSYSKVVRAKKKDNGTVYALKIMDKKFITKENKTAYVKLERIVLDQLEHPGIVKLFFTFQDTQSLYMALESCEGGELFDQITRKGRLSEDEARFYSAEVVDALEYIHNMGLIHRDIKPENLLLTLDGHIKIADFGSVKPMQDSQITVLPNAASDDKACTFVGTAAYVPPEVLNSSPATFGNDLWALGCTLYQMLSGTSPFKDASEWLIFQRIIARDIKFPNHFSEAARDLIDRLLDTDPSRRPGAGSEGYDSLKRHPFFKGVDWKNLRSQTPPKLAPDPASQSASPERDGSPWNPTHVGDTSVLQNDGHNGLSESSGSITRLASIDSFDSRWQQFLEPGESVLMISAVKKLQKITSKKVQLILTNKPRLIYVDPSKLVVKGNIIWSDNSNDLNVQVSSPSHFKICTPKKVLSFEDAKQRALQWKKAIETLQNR

T1: YFP-D6PK (D6 PROTEIN KINASE) (Arabidopsis thaliana) (UniProt Q9FG74)
T1 sequence: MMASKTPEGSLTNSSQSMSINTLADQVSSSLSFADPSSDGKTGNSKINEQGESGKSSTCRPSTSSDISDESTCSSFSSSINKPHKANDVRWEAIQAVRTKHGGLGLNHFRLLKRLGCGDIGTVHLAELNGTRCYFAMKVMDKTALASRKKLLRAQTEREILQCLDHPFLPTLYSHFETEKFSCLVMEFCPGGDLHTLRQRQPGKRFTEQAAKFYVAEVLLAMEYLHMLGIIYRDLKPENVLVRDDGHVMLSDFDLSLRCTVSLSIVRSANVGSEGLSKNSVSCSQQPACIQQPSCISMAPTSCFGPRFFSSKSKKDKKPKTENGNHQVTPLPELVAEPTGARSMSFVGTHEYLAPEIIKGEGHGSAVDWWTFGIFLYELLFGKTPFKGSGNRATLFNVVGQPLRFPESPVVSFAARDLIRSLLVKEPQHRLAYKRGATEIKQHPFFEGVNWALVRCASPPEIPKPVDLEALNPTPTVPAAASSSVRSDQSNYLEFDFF


Columns and labels:
[1] = molecular target: T1, YFP-D6PK (D6 PROTEIN KINASE) (Arabidopsis thaliana); assay: co-IP
[2] = molecular target: GST-PDK1.2 (Arabidopsis thaliana) (UniProt Q4V3C8); assay: pull-down

Molecule	binding [1]	binding [2]
mCherry-PDK1.2 (3'-Phosphoinositide-Dependent Protein Kinase1.2) (from UniProt Q4V3C8) (enzyme)	binds	–
His-D6PK (enzyme, UniProt Q9FG74 1-498) MMASKTPEGSLTNSSQSMSINTLADQVSSSLSFADPSSDGKTGNSKINEQGESGKSSTCRPSTSSDISDESTCSSFSSSINKPHKANDVRWEAIQAVRTKHGGLGLNHFRLLKRLGCGDIGTVHLAELNGTRCYFAMKVMDKTALASRKKLLRAQTEREILQCLDHPFLPTLYSHFETEKFSCLVMEFCPGGDLHTLRQRQPGKRFTEQAAKFYVAEVLLAMEYLHMLGIIYRDLKPENVLVRDDGHVMLSDFDLSLRCTVSLSIVRSANVGSEGLSKNSVSCSQQPACIQQPSCISMAPTSCFGPRFFSSKSKKDKKPKTENGNHQVTPLPELVAEPTGARSMSFVGTHEYLAPEIIKGEGHGSAVDWWTFGIFLYELLFGKTPFKGSGNRATLFNVVGQPLRFPESPVVSFAARDLIRSLLVKEPQHRLAYKRGATEIKQHPFFEGVNWALVRCASPPEIPKPVDLEALNPTPTVPAAASSSVRSDQSNYLEFDFF	–	binds
